Source: article PMC1540706

The chains behind the UniProt entries cited, without tags or fusion partners. Residues count along the entry.
UniProt P63010, residues 700-937: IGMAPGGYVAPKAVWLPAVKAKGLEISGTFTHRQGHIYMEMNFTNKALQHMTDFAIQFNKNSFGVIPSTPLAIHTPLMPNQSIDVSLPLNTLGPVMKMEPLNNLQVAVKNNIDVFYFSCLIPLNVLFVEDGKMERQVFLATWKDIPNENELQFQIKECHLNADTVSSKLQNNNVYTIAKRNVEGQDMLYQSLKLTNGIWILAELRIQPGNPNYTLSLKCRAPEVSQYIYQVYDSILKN

B1: γ-synergin (protein, UniProt Q9UMZ2 1-1314)
chain: MALRPGAGSGGGGAAGAGAGSAGGGGFMFPVAGGIRPPQAGLMPMQQQGFPMVSVMQPNMQGIMGMNYSSQMSQGPIAMQAGIPMGPMPAAGMPYLGQAPFLGMRPPGPQYTPDMQKQFAEEQQKRFEQQQKLLEEERKRRQFEEQKQKLRLLSSVKPKTGEKSRDDALEAIKGNLDGFSRDAKMHPTPASHPKKPGPSLEEKFLVSCDISTSGQEQIKLNTSEVGHKALGPGSSKKYPSLMASNGVAVDGCVSGTTTAEAENTSDQNLSIEESGVGVFPSQDPAQPRMPPWIYNESLVPDAYKKILETTMTPTGIDTAKLYPILMSSGLPRETLGQIWALANRTTPGKLTKEELYTVLAMIAVTQRGVPAMSPDALNQFPAAPIPTLSGFSMTLPTPVSQPTVIPSGPAGSMPLSLGQPVMGINLVGPVGGAAAQASSGFIPTYPANQVVKPEEDDFQDFQDASKSGSLDDSFSDFQELPASSKTSNSQHGNSAPSLLMPLPGTKALPSMDKYAVFKGIAADKSSENTVPPGDPGDKYSAFRELEQTAENKPLGESFAEFRSAGTDDGFTDFKTADSVSPLEPPTKDKTFPPSFPSGTIQQKQQTQVKNPLNLADLDMFSSVNCSSEKPLSFSAVFSTSKSVSTPQSTGSAATMTALAATKTSSLADDFGEFSLFGEYSGLAPVGEQDDFADFMAFSNSSISSEQKPDDKYDALKEEASPVPLTSNVGSTVKGGQNSTAASTKYDVFRQLSLEGSGLGVEDLKDNTPSGKSDDDFADFHSSKFSSINSDKSLGEKAVAFRHTKEDSASVKSLDLPSIGGSSVGKEDSEDALSVQFDMKLADVGGDLKHVMSDSSLDLPTVSGQHPPAADIEDLKYAAFGSYSSNFAVSTLTSYDWSDRDDATQGRKLSPFVLSAGSGSPSATSILQKKETSFGSSENITMTSLSKVTTFVSEDALPETTFPALASFKDTIPQTSEQKEYENRDYKDFTKQDLPTAERSQEATCPSPASSGASQETPNECSDDFGEFQSEKPKISKFDFLVATSQSKMKSSEEMIKSELATFDLSVQGSHKRSLSLGDKEISRSSPSPALEQPFRDRSNTLNEKPALPVIRDKYKDLTGEVEENERYAYEWQRCLGSALNVIKKANDTLNGISSSSVCTEVIQSAQGMEYLLGVVEVYRVTKRVELGIKATAVCSEKLQQLLKDIDKVWNNLIGFMSLATLTPDENSLDFSSCMLRPGIKNAQELACGVCLLNVDSRSRKEEKPAEEHPKKAFNSETDSFKLAYGGHQYHASCANFWINCVEPKPPGLVLPDLL
B2: aftiphilin (protein, UniProt Q6ULP2 1-936)
chain: MEPDIIRMYSSSPPPLDNGAEDDDDDEFGEFGGFSEVSPSGVGFVDFDTPDYTRPKEEFVPSNHFMPIHEFSENVDSLTSFKSIKNGNDKDITAELSAPVKGQSDVLLSTTSKEIISSEMLATSIDGMERPGNLNKVVEQRQNVGTLESFSPGDFRTNMNVVHQNKQLESCNGEKPPCLEILTNGFAVLETVNPQGTDDLDNVADSKGRKPLSTHSTEYNLDSVPSPAEEFADFATFSKKERIQLEEIECAVLNDREALTIRENNKINRVNELNSVKEVALGRSLDNKGDTDGEDQVCVSEISIVTNRGFSVEKQGLPTLQQDEFLQSGVQSKAWSLVDSADNSEAIRREQCKTEEKLDLLTSKCAHLCMDSVKTSDDEVGSPKEESRKFTNFQSPNIDPTEENDLDDSLSVKNGDSSNDFVTCNDINEDDFGDFGDFGSASGSTPPFVTGTQDSMSDATFEESSEHFPHFSEPGDDFGEFGDINAVSCQEETILTKSDLKQTSDNLSEECQLARKSSGTGTEPVAKLKNGQEGEIGHFDSVPNIQDDCNGFQDSDDFADFSSAGPSQVVDWNAFEDEQKDSCSWAAFGDQQATESHHRKEAWQSHRTDENIDTPGTPKTHSVPSATSKGAVASGHLQESATSVQTALLNRLERIFEACFPSILVPDAEEEVTSLKHLLETSTLPIKTREALPESGELLDVWTELQDIHDAHGLRYQWGGSHSNKKLLSSLGIDTRNILFTGNKKQPVIVPMYAAGLGMLEPTKEPLKPLSAAEKIASIGQTATMSPDMNTCTSDQFQESLPPVQFDWSSSGLTNPLDASGGSTLLNLDFFGPVDDSSSSSSTTIPGVDPELYELTTSKLEISTSSLKVTDAFARLMSTVEKTSTSTRKPKREEHLSEEAIKVIAGLPDLTFMHAKVLMFPATLTPSTSSQEKADG
B3: epsin2 (protein, UniProt O95208 1-641)
chain: MTTSSIRRQMKNIVNNYSEAEIKVREATSNDPWGPSSSLMTEIADLTYNVVAFSEIMSMVWKRLNDHGKNWRHVYKALTLLDYLIKTGSERVAQQCRENIFAIQTLKDFQYIDRDGKDQGINVREKSKQLVALLKDEERLKAERAQALKTKERMAQVATGMGSNQITFGRGSSQPNLSTSHSEQEYGKAGGSPASYHGSPEASLCPQHRTGAPLGQSEELQPLSQRHPFLPHLGLASRPNGDWSQPCLTCDRAARATSPRVSSELEQARPQTSGEEELQLQLALAMSREVAEQEERLRRGDDLRLQMALEESRRDTVKIPKKKEHGSLPQQTTLLDLMDALPSSGPAAQKAEPWGPSASTNQTNPWGGPAAPASTSDPWPSFGTKPAASIDPWGVPTGATVQSVPKNSDPWAASQQPASSAGKRASDAWGAVSTTKPVSVSGSFELFSNLNGTIKDDFSEFDNLRTSKKTAESVTSLPSQNNGTTSPDPFESQPLTVASSKPSSARKTPESFLGPNAALVNLDSLVTRPAPPAQSLNPFLAPGAPATSAPVNPFQVNQPQPLTLNQLRGSPVLGTSTSFGPGPGVESMAVASMTSAAPQPALGATGSSLTPLGPAMMNMVGSVGIPPSAAQATGTTNPFLL
B4: Scy1-like2 (HeLa) (protein, UniProt Q6P3W7 1-929)
chain: MESMLNKLKSTVTKVTADVTSAVMGNPVTREFDVGRHIASGGNGLAWKIFNGTKKSTKQEVAVFVFDKKLIDKYQKFEKDQIIDSLKRGVQQLTRLRHPRLLTVQHPLEESRDCLAFCTEPVFASLANVLGNWENLPSPISPDIKDYKLYDVETKYGLLQVSEGLSFLHSSVKMVHGNITPENIILNKSGAWKIMGFDFCVSSTNPSEQEPKFPCKEWDPNLPSLCLPNPEYLAPEYILSVSCETASDMYSLGTVMYAVFNKGKPIFEVNKQDIYKSFSRQLDQLSRLGSSSLTNIPEEVREHVKLLLNVTPTVRPDADQMTKIPFFDDVGAVTLQYFDTLFQRDNLQKSQFFKGLPKVLPKLPKRVIVQRILPCLTSEFVNPDMVPFVLPNVLLIAEECTKEEYVKLILPELGPVFKQQEPIQILLIFLQKMDLLLTKTPPDEIKNSVLPMVYRALEAPSIQIQELCLNIIPTFANLIDYPSMKNALIPRIKNACLQTSSLAVRVNSLVCLGKILEYLDKWFVLDDILPFLQQIPSKEPAVLMGILGIYKCTFTHKKLGITKEQLAGKVLPHLIPLSIENNLNLNQFNSFISVIKEMLNRLESEHKTKLEQLHIMQEQQKSLDIGNQMNVSEEMKVTNIGNQQIDKVFNNIGADLLTGSESENKEDGLQNKHKRASLTLEEKQKLAKEQEQAQKLKSQQPLKPQVHTPVATVKQTKDLTDTLMDNMSSLTSLSVSTPKSSASSTFTSVPSMGIGMMFSTPTDNTKRNLTNGLNANMGFQTSGFNMPVNTNQNFYSSPSTVGVTKMTLGTPPTLPNFNALSVPPAGAKQTQQRPTDMSALNNLFGPQKPKVSMNQLSQQKPNQWLNQFVPPQGSPTMGSSVMGTQMNVIGQSAFGMQGNPFFNPQNFAQPPTTMTNSSSASNDLKDLFG
B5: Sec23 interacting protein p125 (protein, UniProt Q9Y6Y8 1-1000)
chain: MAERKPNGGSGGASTSSSGTNLLFSSSATEFSFNVPFIPVTQASASPASLLLPGEDSTDVGEEDSFLGQTSIHTSAPQTFSYFSQVSSSSDPFGNIGQSPLTTAATSVGQSGFPKPLTALPFTTGSQDVSNAFSPSISKAQPGAPPSSLMGINSYLPSQPSSLPPSYFGNQPQGIPQPGYNPYRHTPGSSRANPYIAPPQLQQCQTPGPPAHPPPSGPPVQMYQMPPGSLPPVPSSVQSPAQQQVPARPGAPSVQVPSPFLLQNQYEPVQPHWFYCKEVEYKQLWMPFSVFDSLNLEEIYNSVQPDPESVVLGTDGGRYDVYLYDRIRKAAYWEEEPAEVRRCTWFYKGDTDSRFIPYTEEFSEKLEAEYKKAVTTNQWHRRLEFPSGETIVMHNPKVIVQFQPSSVPDEWGTTQDGQTRPRVVKRGIDDNLDEIPDGEMPQVDHLVFVVHGIGPVCDLRFRSIIECVDDFRVVSLKLLRTHFKKSLDDGKVSRVEFLPVHWHSSLGGDATGVDRNIKKITLPSIGRFRHFTNETLLDILFYNSPTYCQTIVEKVGMEINHLHALFMSRNPDFKGGVSVAGHSLGSLILFDILSNQKDLNLSKCPGPLAVANGVVKQLHFQEKQMPEEPKLTLDESYDLVVENKEVLTLQETLEALSLSEYFSTFEKEKIDMESLLMCTVDDLKEMGIPLGPRKKIANFVEHKAAKLKKAASEKKAVAATSTKGQEQSAQKTKDMASLPSESNEPKRKLPVGACVSSVCVNYESFEVGAGQVSVAYNSLDFEPEIFFALGSPIAMFLTIRGVDRIDENYSLPTCKGFFNIYHPLDPVAYRLEPMIVPDLDLKAVLIPHHKGRKRLHLELKESLSRMGSDLKQGFISSLKSAWQTLNEFARAHTSSTQLQEELEKVANQIKEEEEKQVVEAEKVVESPDFSKDEDYLGKVGMLNGGRRIDYVLQEKPIESFNEYLFALQSHLCYWESEDTALLLLKEIYRTMNISPEQPQH
B6: KIAA1033 (protein, UniProt Q2M389 1-1173)
chain: MAVETLSPDWEFDRVDDGSQKIHAEVQLKNYGKFLEEYTSQLRRIEDALDDSIGDVWDFNLDPIALKLLPYEQSSLLELIKTENKVLNKVITVYAALCCEIKKLKYEAETKFYNGLLFYGEGATDASMVEGDCQIQMGRFISFLQELSCFVTRCYEVVMNVVHQLAALYISNKIAPKIIETTGVHFQTMYEHLGELLTVLLTLDEIIDNHITLKDHWTMYKRLLKSVHHNPSKFGIQEEKLKPFEKFLLKLEGQLLDGMIFQACIEQQFDSLNGGVSVSKNSTFAEEFAHSIRSIFANVEAKLGEPSEIDQRDKYVGICGLFVLHFQIFRTIDKKFYKSLLDICKKVPAITLTANIIWFPDNFLIQKIPAAAKLLDRKSLQAIKIHRDTFLQQKAQSLTKDVQSYYVFVSSWMMKMESILSKEQRMDKFAEDLTNRCNVFIQGFLYAYSISTIIKTTMNLYMSMQKPMTKTSVKALCRLVELLKAIEHMFYRRSMVVADSVSHITQHLQHQALHSISVAKKRVISDKKYSEQRLDVLSALVLAENTLNGPSTKQRRLIVSLALSVGTQMKTFKDEELFPLQVVMKKLDLISELRERVQTQCDCCFLYWHRAVFPIYLDDVYENAVDAARLHYMFSALRDCVPAMMHARHLESYEILLDCYDKEIMEILNEHLLDKLCKEIEKDLRLSVHTHLKLDDRNPFKVGMKDLALFFSLNPIRFFNRFIDIRAYVTHYLDKTFYNLTTVALHDWATYSEMRNLATQRYGLVMTEAHLPSQTLEQGLDVLEIMRNIHIFVSRYLYNLNNQIFIERTSNNKHLNTINIRHIANSIRTHGTGIMNTTVNFTYQFLKKKFYIFSQFMYDEHIKSRLIKDIRFFREIKDQNDHKYPFDRAEKFNRGIRKLGVTPEGQSYLDQFRQLISQIGNAMGYVRMIRSGGLHCSSNAIRFVPDLEDIVNFEELVKEEGLAEETLKAARHLDSVLSDHTRNSAEGTEYFKMLVDVFAPEFRRPKNIHLRNFYIIVPPLTLNFVEHSISCKEKLNKKNKIGAAFTDDGFAMGVAYILKLLDQYREFDSLHWFQSVREKYLKEIRAVAKQQNVQSASQDEKLLQTMNLTQKRLDVYLQEFELLYFSLSSARIFFRADKTAAEENQEKKEKEEETKTSNGDLSDSTVSADPVVK

Each binder was assayed against GST-human-β2-appendage (700–937) (human) (UniProt P63010) (assay: affinity purification with mass spectrometry; 30–100 μg GST-appendage on glutathione-sepharose beads in HeLa cell extract (150 mM NaCl, 20 mM HEPES pH 7.4, 2 mM DTT, NP40, 0.1% Tx-100), 1 h at 4 °C, 4 washes; Coomassie bands read by LC-MS/MS; only the target purified).
With B1 the binding was “binds”.
With B2 the binding was “binds”.

What follows are binders tested against GST-mouse-α-appendage (α-earL695–983) (mouse) in the same assay as above.
B3 was tested, and the binding was “binds”.
In the case of B4, the binding is reported as “binds”.
With B5 the binding was “binds”.
B6 was tested, and the binding was “binds”.

Results are given in words; binding and its absence hold for the method and conditions named. Binding seen in cells or lysates may run through a third protein. Here binding means that the protein was enriched with, or labelled near, the bait; the list need not be complete.
